± gives the standard deviation of the averaged measurements. The list shows a part of the results, in another mix than the full data.
Assays:
Experiment in all cases: NP40-soluble protein abundance relative to vehicle (solubility fold change) (ratio); higher = more soluble protein in presence of AMP-PNP
[1] = target: T1, ACOX3 (UniProt O15254)
T1 sequence (whole entry): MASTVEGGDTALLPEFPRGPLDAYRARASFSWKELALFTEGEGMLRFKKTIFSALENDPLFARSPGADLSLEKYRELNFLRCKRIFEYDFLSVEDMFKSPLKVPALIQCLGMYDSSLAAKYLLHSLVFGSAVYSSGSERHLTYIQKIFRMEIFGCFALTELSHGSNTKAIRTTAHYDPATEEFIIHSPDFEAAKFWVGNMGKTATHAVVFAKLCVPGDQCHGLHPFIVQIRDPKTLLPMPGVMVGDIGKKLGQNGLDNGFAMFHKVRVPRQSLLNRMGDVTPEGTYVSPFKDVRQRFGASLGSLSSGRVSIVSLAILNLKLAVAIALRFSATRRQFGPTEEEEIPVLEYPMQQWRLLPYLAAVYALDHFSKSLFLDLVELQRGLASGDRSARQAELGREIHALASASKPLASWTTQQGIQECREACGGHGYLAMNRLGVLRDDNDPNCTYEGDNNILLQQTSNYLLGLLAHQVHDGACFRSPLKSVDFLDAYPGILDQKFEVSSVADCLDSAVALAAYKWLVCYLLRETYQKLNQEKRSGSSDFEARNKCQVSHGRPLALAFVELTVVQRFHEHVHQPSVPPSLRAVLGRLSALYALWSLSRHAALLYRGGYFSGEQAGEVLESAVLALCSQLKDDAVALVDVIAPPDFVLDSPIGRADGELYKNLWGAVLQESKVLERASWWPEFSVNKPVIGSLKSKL
Summary of the method: (§1)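 Data come from three independent experiments in which Dounce-homogenised Jurkat crude lysate was treated at eight concentrations from 0.1 to 10 mM. Treatment ran 10 min at room temperature and then 3 min at 37 °C, after which 0.8% NP40 and benzonase were added for 60 min at 4 °C before ultracentrifugation. The supernatant underwent TMT labelling and LC-MS/MS, and vsn-normalised intensities were expressed as fold change against the detergent-processed vehicle in each replicate.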

[2] = target: T2, ADAM10 (UniProt O14672)
T2 sequence (whole entry): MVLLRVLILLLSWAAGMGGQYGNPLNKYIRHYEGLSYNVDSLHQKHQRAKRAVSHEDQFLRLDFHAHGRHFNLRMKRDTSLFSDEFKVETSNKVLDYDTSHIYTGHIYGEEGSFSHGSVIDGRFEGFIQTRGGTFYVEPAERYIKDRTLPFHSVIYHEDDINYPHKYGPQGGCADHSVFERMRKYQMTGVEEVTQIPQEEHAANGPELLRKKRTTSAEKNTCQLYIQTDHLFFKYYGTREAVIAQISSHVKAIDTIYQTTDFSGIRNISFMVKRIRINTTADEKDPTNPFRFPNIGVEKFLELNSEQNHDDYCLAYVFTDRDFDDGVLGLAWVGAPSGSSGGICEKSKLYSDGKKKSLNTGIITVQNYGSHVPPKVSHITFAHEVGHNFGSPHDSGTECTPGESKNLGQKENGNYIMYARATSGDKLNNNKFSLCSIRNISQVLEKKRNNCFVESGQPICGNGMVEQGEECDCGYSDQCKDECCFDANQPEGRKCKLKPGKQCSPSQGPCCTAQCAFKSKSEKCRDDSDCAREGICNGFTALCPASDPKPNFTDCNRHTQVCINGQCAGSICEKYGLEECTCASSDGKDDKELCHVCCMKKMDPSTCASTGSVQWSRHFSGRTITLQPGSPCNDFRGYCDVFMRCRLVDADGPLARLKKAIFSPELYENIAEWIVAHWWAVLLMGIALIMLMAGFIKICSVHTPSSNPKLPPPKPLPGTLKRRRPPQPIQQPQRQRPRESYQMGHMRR
Summary of the method: as §1

[3] = target: T3, NVL (UniProt O15381)
T3 sequence (whole entry): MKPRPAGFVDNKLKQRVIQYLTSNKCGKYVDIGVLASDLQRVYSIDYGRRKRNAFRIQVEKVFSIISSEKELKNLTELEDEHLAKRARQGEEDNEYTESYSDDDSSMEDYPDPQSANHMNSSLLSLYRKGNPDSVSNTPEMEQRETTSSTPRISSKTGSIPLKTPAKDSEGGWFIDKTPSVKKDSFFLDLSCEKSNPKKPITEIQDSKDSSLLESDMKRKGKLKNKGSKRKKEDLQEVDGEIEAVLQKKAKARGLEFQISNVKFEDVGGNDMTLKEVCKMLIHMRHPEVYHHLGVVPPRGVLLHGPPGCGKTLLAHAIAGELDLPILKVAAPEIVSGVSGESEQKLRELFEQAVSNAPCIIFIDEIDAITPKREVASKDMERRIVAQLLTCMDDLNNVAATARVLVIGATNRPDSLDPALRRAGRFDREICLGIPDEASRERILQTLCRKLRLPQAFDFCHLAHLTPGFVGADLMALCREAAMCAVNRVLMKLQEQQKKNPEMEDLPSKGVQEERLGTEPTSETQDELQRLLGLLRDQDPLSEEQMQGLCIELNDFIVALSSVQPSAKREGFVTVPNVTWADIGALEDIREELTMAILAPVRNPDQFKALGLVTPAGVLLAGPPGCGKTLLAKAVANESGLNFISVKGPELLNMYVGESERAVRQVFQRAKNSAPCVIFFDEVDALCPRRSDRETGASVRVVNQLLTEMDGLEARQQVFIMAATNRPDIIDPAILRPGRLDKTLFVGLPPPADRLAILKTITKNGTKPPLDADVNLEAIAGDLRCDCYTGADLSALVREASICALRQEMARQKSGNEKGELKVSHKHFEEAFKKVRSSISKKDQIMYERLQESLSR
Summary of the method: as §1

[4] = target: T4, RFXAP (UniProt O00287)
T4 sequence (whole entry): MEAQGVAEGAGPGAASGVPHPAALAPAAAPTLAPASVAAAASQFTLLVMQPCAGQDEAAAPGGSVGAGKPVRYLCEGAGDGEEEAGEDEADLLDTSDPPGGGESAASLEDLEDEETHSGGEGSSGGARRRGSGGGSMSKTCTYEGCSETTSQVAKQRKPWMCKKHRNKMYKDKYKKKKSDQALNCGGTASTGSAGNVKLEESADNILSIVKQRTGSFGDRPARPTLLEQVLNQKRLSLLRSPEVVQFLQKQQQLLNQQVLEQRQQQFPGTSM
Summary of the method: as §1

[5] = target: T5, SNAP23 (UniProt O00161); settings: concentration: 1mM
T5 sequence (whole entry): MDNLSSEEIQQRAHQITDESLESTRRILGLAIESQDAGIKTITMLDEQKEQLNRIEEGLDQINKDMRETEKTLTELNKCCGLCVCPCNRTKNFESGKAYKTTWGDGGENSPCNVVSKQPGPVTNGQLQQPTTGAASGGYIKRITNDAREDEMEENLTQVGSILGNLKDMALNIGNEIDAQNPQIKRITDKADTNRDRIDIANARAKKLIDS
Summary of the method: as §1

Molecule `Nc1ncnc2c1ncn2[C@@H]1O[C@H](COP(=O)(O)OP(=O)(O)NP(=O)(O)O)[C@@H](O)[C@H]1O` [adenylyl imidodiphosphate] has an NP40-soluble protein abundance ([1]; concentration: 1mM) of 0.977 ± 0.053, an NP40-soluble protein abundance ([1]; concentration: 2mM) of 0.928 ± 0.076 and an NP40-soluble protein abundance ([1]; concentration: 4mM) of 0.967 ± 0.031. It also gave an NP40-soluble protein abundance ([1]; concentration: 6mM) of 0.957 ± 0.057, an NP40-soluble protein abundance ([1]; concentration: 8mM) of 0.972 ± 0.07 and an NP40-soluble protein abundance ([1]; concentration: 10mM) of 0.918 ± 0.089. For the same molecule, the NP40-soluble protein abundance ([2]; concentration: 1mM) was 0.981 ± 0.031, the NP40-soluble protein abundance ([2]; concentration: 2mM) was 1.04 ± 0.059 and the NP40-soluble protein abundance ([2]; concentration: 4mM) was 0.9979 ± 0.0066. The NP40-soluble protein abundance ([2]; concentration: 6mM) was 1.02 ± 0.027, the NP40-soluble protein abundance ([2]; concentration: 8mM) was 0.998 ± 0.037 and the NP40-soluble protein abundance ([2]; concentration: 10mM) was 1.02 ± 0.0085. It also gave an NP40-soluble protein abundance ([3]; concentration: 1mM) of 1.07 ± 0.033, an NP40-soluble protein abundance ([3]; concentration: 2mM) of 1.12 ± 0.038 and an NP40-soluble protein abundance ([3]; concentration: 4mM) of 1.16 ± 0.038. The NP40-soluble protein abundance ([3]; concentration: 6mM) was 1.13 ± 0.052, the NP40-soluble protein abundance ([3]; concentration: 8mM) was 1.11 ± 0.038 and the NP40-soluble protein abundance ([3]; concentration: 10mM) was 1.14 ± 0.042. It also gave an NP40-soluble protein abundance ([4]; concentration: 1mM) of 1 ± 0.031, an NP40-soluble protein abundance ([4]; concentration: 2mM) of 1.04 ± 0.047 and an NP40-soluble protein abundance ([4]; concentration: 4mM) of 1.01 ± 0.031. For the same molecule, the NP40-soluble protein abundance ([4]; concentration: 6mM) was 1.04 ± 0.035, the NP40-soluble protein abundance ([4]; concentration: 8mM) was 1.01 ± 0.041 and the NP40-soluble protein abundance ([4]; concentration: 10mM) was 1.04 ± 0.044. The NP40-soluble protein abundance [5] was 1 ± 0.035.

— the supplement of paper PMC6411743
